We go through eight molecules from article PMC3946611, “hCLE/C14orf166 Associates with DDX1-HSPC117-FAM98B in a Novel Transcription-Dependent Shuttling RNA-Transporting Complex” (PLoS ONE, 2014).

These are yes or no findings as the source states them, for the method shown. In cells and extracts the contact can be indirect. These calls come from enrichment with a bait or labelling near it, and not all partners need be listed. Sequences can lack the tags named with a protein.

The experiment addresses T1, hCLE-TAP tagged protein, purified as hCLE-CBD (human) (UniProt Q9Y224).
T1 sequence: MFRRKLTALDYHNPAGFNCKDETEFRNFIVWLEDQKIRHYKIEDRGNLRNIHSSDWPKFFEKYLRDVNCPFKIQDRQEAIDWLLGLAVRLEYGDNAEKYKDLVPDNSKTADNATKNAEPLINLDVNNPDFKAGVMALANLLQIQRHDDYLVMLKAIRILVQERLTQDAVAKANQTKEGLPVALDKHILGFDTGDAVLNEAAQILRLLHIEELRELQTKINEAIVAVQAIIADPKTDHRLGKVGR
In words: affinity purification with mass spectrometry; TAP purification of hCLE-TAP from cytosolic extracts of transfected HEK293T cells (150 mM NaCl); LC-MS/MS; TAP alone as control.

B1: ATP-binding cassette sub-family F member 2 (protein, UniProt Q9UG63 1-623)
chain: MPSDLAKKKAAKKKEAAKARQRPRKGHEENGDVVTEPQVAEKNEANGRETTEVDLLTKELEDFEMKKAAARAVTGVLASHPNSTDVHIINLSLTFHGQELLSDTKLELNSGRRYGLIGLNGIGKSMLLSAIGKREVPIPEHIDIYHLTREMPPSDKTPLHCVMEVDTERAMLEKEAERLAHEDAECEKLMELYERLEELDADKAEMRASRILHGLGFTPAMQRKKLKDFSGGWRMRVALARALFIRPFMLLLDEPTNHLDLDACVWLEEELKTFKRILVLVSHSQDFLNGVCTNIIHMHNKKLKYYTGNYDQYVKTRLELEENQMKRFHWEQDQIAHMKNYIARFGHGSAKLARQAQSKEKTLQKMMASGLTERVVSDKTLSFYFPPCGKIPPPVIMVQNVSFKYTKDGPCIYNNLEFGIDLDTRVALVGPNGAGKSTLLKLLTGELLPTDGMIRKHSHVKIGRYHQHLQEQLDLDLSPLEYMMKCYPEIKEKEEMRKIIGRYGLTGKQQVSPIRNLSDGQKCRVCLAWLAWQNPHMLFLDEPTNHLDIETIDALADAINEFEGGMMLVSHDFRLIQQVAQEIWVCEKQTITKWPGDILAYKEHLKSKLVDEEPQLTKRTHNV
For B1, the binding entry is recorded as “binds”.

B2: DnaJ homolog subfamily C member 11 (protein, UniProt Q9NVH1 1-559)
chain: MATALSEEELDNEDYYSLLNVRREASSEELKAAYRRLCMLYHPDKHRDPELKSQAERLFNLVHQAYEVLSDPQTRAIYDIYGKRGLEMEGWEVVERRRTPAEIREEFERLQREREERRLQQRTNPKGTISVGVDATDLFDRYDEEYEDVSGSSFPQIEINKMHISQSIEAPLTATDTAILSGSLSTQNGNGGGSINFALRRVTSAKGWGELEFGAGDLQGPLFGLKLFRNLTPRCFVTTNCALQFSSRGIRPGLTTVLARNLDKNTVGYLQWRWGIQSAMNTSIVRDTKTSHFTVALQLGIPHSFALISYQHKFQDDDQTRVKGSLKAGFFGTVVEYGAERKISRHSVLGAAVSVGVPQGVSLKVKLNRASQTYFFPIHLTDQLLPSAMFYATVGPLVVYFAMHRLIIKPYLRAQKEKELEKQRESAATDVLQKKQEAESAVRLMQESVRRIIEAEESRMGLIIVNAWYGKFVNDKSRKSEKVKVIDVTVPLQCLVKDSKLILTEASKAGLPGFYDPCVGEEKNLKVLYQFRGVLHQVMVLDSEALRIPKQSHRIDTDG
For B2, the binding result is “binds”.

B3: Rab11 family-interacting protein 5 (protein, UniProt Q9BXF6 1-653)
chain: MALVRGAEPAAGPSRWLPTHVQVTVLRARGLRGKSSGAGSTSDAYTVIQVGREKYSTSVVEKTHGCPEWREECSFELPPGALDGLLRAQEADAGPAPWAASSAAACELVLTTMHRSLIGVDKFLGQATVALDEVFGAGRAQHTQWYKLHSKPGKKEKERGEIEVTIQFTRNNLSASMFDLSMKDKPRSPFSKIRDKMKGKKKYDLESASAILPSSAIEDPDLGSLGKMGKAKGFFLRNKLRKSSLTQSNTSLGSDSTLSSASGSLAYQGPGAELLTRSPSRSSWLSTEGGRDSAQSPKLFTHKRTYSDEANQMRVAPPRALLDLQGHLDAASRSSLCVNGSHIYNEEPQGPVRHRSSISGSLPSSGSLQAVSSRFSEEGPRSTDDTWPRGSRSNSSSEAVLGQEELSAQAKVLAPGASHPGEEEGARLPEGKPVQVATPIVASSEAVAEKEGARKEERKPRMGLFHHHHQGLSRSELGRRSSLGEKGGPILGASPHHSSSGEEKAKSSWFGLREAKDPTQKPSPHPVKPLSAAPVEGSPDRKQSRSSLSIALSSGLEKLKTVTSGSIQPVTQAPQAGQMVDTKRLKDSAVLDQSAKYYHLTHDELISLLLQRERELSQRDEHVQELESYIDRLLVRIMETSPTLLQIPPGPPK
B3: the binding entry is listed as “binds”.

B4: Ribosomal biogenesis protein LAS1L (protein, UniProt Q9Y4W2 1-734)
chain: MSWESGAGPGLGSQGMDLVWSAWYGKCVKGKGSLPLSAHGIVVAWLSRAEWDQVTVYLFCDDHKLQRYALNRITVWRSRSGNELPLAVASTADLIRCKLLDVTGGLGTDELRLLYGMALVRFVNLISERKTKFAKVPLKCLAQEVNIPDWIVDLRHELTHKKMPHINDCRRGCYFVLDWLQKTYWCRQLENSLRETWELEEFREGIEEEDQEEDKNIVVDDITEQKPEPQDDGKSTESDVKADGDSKGSEEVDSHCKKALSHKELYERARELLVSYEEEQFTVLEKFRYLPKAIKAWNNPSPRVECVLAELKGVTCENREAVLDAFLDDGFLVPTFEQLAALQIEYEDGQTEVQRGEGTDPKSHKNVDLNDVLVPKPFSQFWQPLLRGLHSQNFTQALLERMLSELPALGISGIRPTYILRWTVELIVANTKTGRNARRFSAGQWEARRGWRLFNCSASLDWPRMVESCLGSPCWASPQLLRIIFKAMGQGLPDEEQEKLLRICSIYTQSGENSLVQEGSEASPIGKSPYTLDSLYWSVKPASSSFGSEAKAQQQEEQGSVNDVKEEEKEEKEVLPDQVEEEEENDDQEEEEEDEDDEDDEEEDRMEVGPFSTGQESPTAENARLLAQKRGALQGSAWQVSSEDVRWDTFPLGRMPGQTEDPAELMLENYDTMYLLDQPVLEQRLEPSTCKTDTLGLSCGVGSGNCSNSSSSNFEGLLWSQGQLHGLKTGLQLF
With B4, the binding result is on record as “binds”.

B5: Golgin subfamily A member 3 (protein, UniProt Q08378 1-1498)
chain: MDGASAEQDGLQEDRSHSGPSSLPEAPLKPPGPLVPPDQQDKVQCAEVNRASTEGESPDGPGQGGLCQNGPTPPFPDPPSSLDPTTSPVGPDASPGVAGFHDNLRKSQGTSAEGSVRKEALQSLRLSLPMQETQLCSTDSPLPLEKEEQVRLQARKWLEEQLKQYRVKRQQERSSQPATKTRLFSTLDPELMLNPENLPRASTLAMTKEYSFLRTSVPRGPKVGSLGLPAHPREKKTSKSSKIRSLADYRTEDSNAGNSGGNVPAPDSTKGSLKQNRSSAASVVSEISLSPDTDDRLENTSLAGDSVSEVDGNDSDSSSYSSASTRGTYGILSKTVGTQDTPYMVNGQEIPADTLGQFPSIKDVLQAAAAEHQDQGQEVNGEVRSRRDSICSSVSLESSAAETQEEMLQVLKEKMRLEGQLEALSLEASQALKEKAELQAQLAALSTKLQAQVECSHSSQQRQDSLSSEVDTLKQSCWDLERAMTDLQNMLEAKNASLASSNNDLQVAEEQYQRLMAKVEDMQRSMLSKDNTVHDLRQQMTALQSQLQQVQLERTTLTSKLKASQAEISSLQSVRQWYQQQLALAQEARVRLQGEMAHIQVGQMTQAGLLEHLKLENVSLSQQLTETQHRSMKEKGRIAAQLQGIEADMLDQEAAFMQIQEAKTMVEEDLQRRLEEFEGERERLQRMADSAASLEQQLEQVKLTLLQRDQQLEALQQEHLDLMKQLTLTQEALQSREQSLDALQTHYDELQARLGELQGEAASREDTICLLQNEKIILEAALQAAKSGKEELDRGARRLEEGTEETSETLEKLREELAIKSGQVEHLQQETAALKKQMQKIKEQFLQQKVMVEAYRRDATSKDQLISELKATRKRLDSELKELRQELMQVHGEKRTAEAELSRLHREVAQVRQHMADLEGHLQSAQKERDEMETHLQSLQFDKEQMVAVTEANEALKKQIEELQQEARKAITEQKQKMRRLGSDLTSAQKEMKTKHKAYENAVGILSRRLQEALAAKEAADAELGQLRAQGGSSDSSLALHERIQALEAELQAVSHSKTLLEKELQEVIALTSQELEESREKVLELEDELQESRGFRKKIKRLEESNKKLALELEHEKGKLTGLGQSNAALREHNSILETALAKREADLVQLNLQVQAVLQRKEEEDRQMKHLVQALQASLEKEKEKVNSLKEQVAAAKVEAGHNRRHFKAASLELSEVKKELQAKEHLVQKLQAEADDLQIREGKHSQEIAQFQAELAEARAQLQLLQKQLDEQLSKQPVGNQEMENLKWEVDQKEREIQSLKQQLDLTEQQGRKELEGLQQLLQNVKSELEMAQEDLSMTQKDKFMLQAKVSELKNNMKTLLQQNQQLKLDLRRGAAKTRKEPKGEASSSNPATPIKIPDCPVPASLLEELLRPPPAVSKEPLKNLNSCLQQLKQEMDSLQRQMEEHALTVHESLSSWTPLEPATASPVPPGGHAGPRGDPQRHSQSRASKEGPGE
As to B5, the binding result is “binds”.

B6: Syntaxin-18 (protein, UniProt Q9P2W9 1-335)
chain: MAVDITLLFRASVKTVKTRNKALGVAVGGGVDGSRDELFRRSPRPKGDFSSRAREVISHIGKLRDFLLEHRKDYINAYSHTMSEYGRMTDTERDQIDQDAQIFMRTCSEAIQQLRTEAHKEIHSQQVKEHRTAVLDFIEDYLKRVCKLYSEQRAIRVKRVVDKKRLSKLEPEPNTKTRESTSSEKVSQSPSKDSEENPATEERPEKILAETQPELGTWGDGKGEDELSPEEIQMFEQENQRLIGEMNSLFDEVRQIEGRVVEISRLQEIFTEKVLQQEAEIDSIHQLVVGATENIKEGNEDIREAIKNNAGFRVWILFFLVMCSFSLLFLDWYDS
For B6, the binding result is given as “binds”.

B7: Bystin (protein, UniProt Q13895 1-437)
chain: MPKFKAARGVGGQEKHAPLADQILAGNAVRAGVREKRRGRGTGEAEEEYVGPRLSRRILQQARQQQEELEAEHGTGDKPAAPRERTTRLGPRMPQDGSDDEDEEWPTLEKAATMTAAGHHAEVVVDPEDERAIEMFMNKNPPARRTLADIIMEKLTEKQTEVETVMSEVSGFPMPQLDPRVLEVYRGVREVLSKYRSGKLPKAFKIIPALSNWEQILYVTEPEAWTAAAMYQATRIFASNLKERMAQRFYNLVLLPRVRDDVAEYKRLNFHLYMALKKALFKPGAWFKGILIPLCESGTCTLREAIIVGSIITKCSIPVLHSSAAMLKIAEMEYSGANSIFLRLLLDKKYALPYRVLDALVFHFLGFRTEKRELPVLWHQCLLTLVQRYKADLATDQKEALLELLRLQPHPQLSPEIRRELQSAVPRDVEDVPITVE
With B7, the binding entry was “binds”.

B8: Coiled-coil domain-containing protein 8 (protein, UniProt Q9H0W5 1-538)
chain: MLQIGEDVDYLLIPREVRLAGGVWRVISKPATKEAEFRERLTQFLEEEGRTLEDVARIMEKSTPHPPQPPKKPKEPRVRRRVQQMVTPPPRLVVGTYDSSNASDSEFSDFETSRDKSRQGPRRGKKVRKMPVSYLGSKFLGSDLESEDDEELVEAFLRRQEKQPSAPPARRRVNLPVPMFEDNLGPQLSKADRWREYVSQVSWGKLKRRVKGWAPRAGPGVGEARLASTAVESAGVSSAPEGTSPGDRLGNAGDVCVPQASPRRWRPKINWASFRRRRKEQTAPTGQGADIEADQGGEAADSQREEAIADQREGAAGNQRAGAPADQGAEAADNQREEAADNQRAGAPAEEGAEAADNQREEAADNQRAEAPADQRSQGTDNHREEAADNQRAEAPADQGSEVTDNQREEAVHDQRERAPAVQGADNQRAQARAGQRAEAAHNQRAGAPGIQEAEVSAAQGTTGTAPGARARKQVKTVRFQTPGRFSWFCKRRRAFWHTPRLPTLPKRVPRAGEARNLRVLRAEARAEAEQGEQEDQL
For B8, the binding entry is “binds”.
